Test results from PubChem BioAssay AID1671190 (National Center for Advancing Translational Sciences (NCATS), 2021).
“And” between values parts separate entries of the source, which are not always exact repeats. Equal entries are not always repeated. In all, about 580,000 compounds went through this assay and about 6,100 (1.1%) were called active. The shares of active, inactive and inconclusive entries below differ from those in the screen. Calls come from the whole dose curve; as a rule, active = well fitted inhibition curve with a large enough effect; inconclusive = small, poorly fitted or top-dose-only effect, or another doubt; inactive = no such curve, though single readings can be large or run the other way. A potency beside an inconclusive call is a rough fit, not a confirmed value.

By UniProt entry, the sequences of proteins in these tests, tags left out. Where a name states a change or a piece, a line headed by the entry shows the natural chain unless it says otherwise.
UniProt P18054: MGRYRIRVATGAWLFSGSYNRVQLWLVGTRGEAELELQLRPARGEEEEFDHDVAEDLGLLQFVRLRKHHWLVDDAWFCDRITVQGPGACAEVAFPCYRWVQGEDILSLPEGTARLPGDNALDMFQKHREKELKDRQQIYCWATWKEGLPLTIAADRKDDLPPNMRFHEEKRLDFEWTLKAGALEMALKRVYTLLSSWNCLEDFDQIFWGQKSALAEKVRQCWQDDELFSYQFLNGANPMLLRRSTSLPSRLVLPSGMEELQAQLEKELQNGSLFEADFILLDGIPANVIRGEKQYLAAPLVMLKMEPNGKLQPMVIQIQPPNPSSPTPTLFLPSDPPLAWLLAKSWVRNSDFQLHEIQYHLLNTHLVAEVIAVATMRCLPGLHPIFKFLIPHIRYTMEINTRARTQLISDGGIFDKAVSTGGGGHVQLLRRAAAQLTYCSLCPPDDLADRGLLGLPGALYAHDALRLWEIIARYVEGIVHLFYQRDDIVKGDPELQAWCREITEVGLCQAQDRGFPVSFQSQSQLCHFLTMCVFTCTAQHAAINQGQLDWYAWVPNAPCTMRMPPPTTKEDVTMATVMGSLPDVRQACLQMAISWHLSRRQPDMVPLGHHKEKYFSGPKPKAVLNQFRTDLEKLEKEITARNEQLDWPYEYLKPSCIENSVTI

Each molecule was assayed against Polyunsaturated fatty acid lipoxygenase ALOX12 (Homo sapiens) (UniProt P18054) (assay: Primary qHTS assay for inhibitors of human arachidonate 12S-lipoxygenase (ALOX12): Round 2). Conditions: purified 12hLO, xylenol orange hydroperoxide absorbance; activity change, negative = inhibition: at 108 µM (top of the series) unless noted.
Outline: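 Purified human 12hLO (150 nM final) in 25 mM Hepes, 0.01% Triton X-100, pH 7.0 was preincubated 15 min at room temperature with compound. Then 40 uM arachidonic acid was added, 30 min. Hydroperoxide was read by Fe-XO absorbance ratio 573/405 nm.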
% is set by controls: 0 for no effect and ±100 for the full control effect; potency is the fitted concentration of half-maximal effect.

| SMILES | Potency | activity change, negative = inhibition |
| --- | --- | --- |
| CC(=O)c1ccc(NC(=S)Nc2ccc(Br)c(Cl)c2)cc1 | inconclusive: 44.7 µM [inhibitor, partial curve, poor fit] |  |
| COc1ccc(O)cc1CN1CCN(c2ncc(Cc3ccccc3)cn2)CC1 | inconclusive: 44.7 µM [inhibitor, partial curve, poor fit] |  |
| CC(O)(c1cccc(F)c1)c1nc(/C=C/c2ccccc2)cs1 (stereo not drawn) | inconclusive: 44.7 µM [inhibitor, partial curve, poor fit] |  |
| CCCCCOc1ccc(S(=O)(=O)c2ccc(OCCCCC)cc2)cc1 |  | inactive: 7.28% |
| CCCOc1c(Cl)cc(/C=C(/C#N)C(=O)OC)cc1OCC |  | inactive: 8.99% |
| Cc1ccc(CNC(=O)c2ccc(CSCc3ccc(C)cc3)o2)cc1 | inconclusive: 79.4 µM [inhibitor, partial curve, poor fit] and active: 11.2 µM |  |
| Cc1cc2nc(-c3ccc(F)cc3)c(CC(C)(C)C)n2c(C)c1Br | inconclusive: 0.282 µM [inhibitor, full curve, poor fit] |  |
| Cc1ccc(OCCn2cc(/C=C(\C#N)C(=O)NCC3CCCO3)c3ccccc32)cc1 (stereo not drawn) | inconclusive: 2.82 µM [inhibitor, full curve, poor fit] |  |
| O=C(Nc1cccc(-c2nnc3n2CCCC3)c1)c1ccsc1 |  | inactive: 5.81% |
| O=[S+]([O-])(c1cccc(C(F)(F)F)c1)N1CC(Oc2ccc3c(c2)OCO3)C1 |  | inconclusive: -30.2% [inhibitor] |
| Cc1ccc(N(CN2C(=O)C3C4CCC(C4)C3C2=O)C(=O)c2ccco2)cc1 (stereo not drawn) | inconclusive: 100 µM [inhibitor, partial curve, poor fit] |  |
| Cc1ccc(NS(=O)(=O)c2ccc3[nH]c4c(c3c2)CCCCCC4)cc1Cl | inconclusive: 44.7 µM [inhibitor, partial curve, poor fit] |  |
| COc1cc(/C=N/O)c(Br)cc1OCc1ccccc1Cl |  | inactive: -7.67% |
| CC(=O)c1ccc(NC(=O)CC2C=CCC2)cc1 (stereo not drawn) | inconclusive: 79.4 µM [inhibitor, partial curve, poor fit] |  |
| CN(C(=O)Cc1ccc(F)cc1)C1CCCc2ccccc21 (stereo not drawn) | inconclusive: 50.1 µM [inhibitor, partial curve] |  |
| COc1ccc(-c2noc([C@@H]3O[C@H](CO)[C@H](O)[C@H](O)[C@H]3O)n2)cc1OC |  | inactive: 1.25% |
| O=C(Nc1ccc(S(=O)(=O)NC2=NCCCCC2)cc1)c1ccc([N+](=O)[O-])s1 | inconclusive: 50.1 µM [inhibitor, partial curve, poor fit] |  |
| C[C@H](CO)N1C[C@H](C)[C@H](CN(C)S(=O)(=O)c2ccc(F)cc2)Oc2ncc(Br)cc2C1=O | inconclusive: 79.4 µM [inhibitor, single point] |  |

Looked up above:
Under Potency, O=C(Nc1ccc(S(=O)(=O)NC2=NCCCCC2)cc1)c1ccc([N+](=O)[O-])s1 is entered as inconclusive: 50.1 µM [inhibitor, partial curve, poor fit]
Under Potency, Cc1cc2nc(-c3ccc(F)cc3)c(CC(C)(C)C)n2c(C)c1Br is entered as inconclusive: 0.282 µM [inhibitor, full curve, poor fit]
